Measured values: PMC7819943, “Rice protein-binding microarrays: a tool to detect cis-acting elements near promoter regions in rice”
The list shows a part of the results.

Molecular target: T1, OsSMF1 (Oryza sativa, UniProt Q6ZLB0 1-436)
T1 sequence: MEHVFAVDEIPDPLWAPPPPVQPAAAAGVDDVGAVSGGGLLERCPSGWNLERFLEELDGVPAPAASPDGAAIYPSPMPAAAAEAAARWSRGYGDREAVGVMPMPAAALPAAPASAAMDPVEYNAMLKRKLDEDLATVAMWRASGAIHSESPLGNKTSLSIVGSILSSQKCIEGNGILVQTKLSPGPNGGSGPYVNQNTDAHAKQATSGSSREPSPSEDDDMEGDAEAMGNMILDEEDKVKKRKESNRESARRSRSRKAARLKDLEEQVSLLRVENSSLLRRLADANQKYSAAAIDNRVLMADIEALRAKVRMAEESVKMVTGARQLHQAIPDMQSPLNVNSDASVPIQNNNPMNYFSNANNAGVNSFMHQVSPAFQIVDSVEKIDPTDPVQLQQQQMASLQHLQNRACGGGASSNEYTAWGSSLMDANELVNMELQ
Test: protein-binding microarray (RPBM); PBS, 2% BSA, 51.3 ng/ul salmon testes DNA, 50 uM zinc acetate, 200 nM TF, 25 C, 1 h; high values mean tight binding
Settings: protein: recombinant; tags: N-terminal polyhistidine and DsRed monomer fusion (pET32a); chain copies: 2; label: CyDye5-dUTP incorporated in the synthesized complementary strand; 3' TTTTT single-stranded linker to array surface; dsDNA, one strand shown
How it was run: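 Transcription factors were each fused at the N-terminus to a polyhistidine tag plus DsRed and expressed in E. coli BL21-CodonPlus before Ni–NTA purification. Binding to a double-stranded custom Agilent array was carried out with 200 nM protein at 25 °C for 1 h in PBS, 2% BSA, salmon testes DNA and 50 µM zinc acetate. The binding signal is per-feature fluorescence intensity, in arbitrary units, on an Axon 4000B scanner.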

Sequence	binding signal
ATCAGTTTGTCAGTTCTTAAATGACGAGTATTGCATCATGCGGAGTCACCTAGTGCAG	4600 fluorescence intensity (a.u.)
TCTGAACTGTTTGTTCAGAAGCGTCATAACTCATAAATTACGGAGTCACCTAGTGCAG	36900 fluorescence intensity (a.u.)
CAGGCAACGCAACGCCAAGAAGGGAAGGGGTCAGGTTCAACGGAGTCACCTAGTGCAG	3440 fluorescence intensity (a.u.)
CTGGATCCAGCCAGTGCAACCTCAGCCCGCTAAGCCACGTCGGAGTCACCTAGTGCAG	5720 fluorescence intensity (a.u.)
ACCCGTAACTCGTGGATCCCATGTCAGCTACCCACGTTTTCGGAGTCACCTAGTGCAG	3770 fluorescence intensity (a.u.)
TTCCACCGTGACGTTGATGAGTGGGTCCCGTCGTGATGCCCGGAGTCACCTAGTGCAG	4720 fluorescence intensity (a.u.)
GTGACGGCGAGCCGTCCGTGTCCGTCACACGCCCATCACGCGGAGTCACCTAGTGCAG	4400 fluorescence intensity (a.u.)
AGGACTGCAGCGGTTGAAGGGGTGGTGACTGACTGGTCGGCGGAGTCACCTAGTGCAG	3510 fluorescence intensity (a.u.)
CTAACACGTCACACAATTACGTCATGTTCGCGTCGCCGAACGGAGTCACCTAGTGCAG	19600 fluorescence intensity (a.u.)
GGATGACAACGCACACACTGTTAGGCCTCCTTTGGAACACCGGAGTCACCTAGTGCAG	5950 fluorescence intensity (a.u.)
CATTTTCCACATTCATATTGATGTTAATGATATAAATATGCGGAGTCACCTAGTGCAG	33700 fluorescence intensity (a.u.)
GCATAATCATGCAGTGGCAAGTGTATGGGGTCTGATTGCTCGGAGTCACCTAGTGCAG	3210 fluorescence intensity (a.u.)
AGTGTGTGCGTGCCCATGATTTTGTCGCGGCTTTGCTAACCGGAGTCACCTAGTGCAG	4190 fluorescence intensity (a.u.)
ATTTGTTCAACCAGGAATGTAATCCTTTGTTCAGTCATTACGGAGTCACCTAGTGCAG	5000 fluorescence intensity (a.u.)
TATCATTAAAATTTTCTTGACCAAAATACCCTCTTCTCCTCGGAGTCACCTAGTGCAG	3180 fluorescence intensity (a.u.)
TATTTATATTGTCGACGTTTGATGTCGCGATTCCGGTATTCGGAGTCACCTAGTGCAG	3470 fluorescence intensity (a.u.)
GTGCTCGAGGGGCTCGTCGACGTCAACGCGCCGCCGATGCCGGAGTCACCTAGTGCAG	3810 fluorescence intensity (a.u.)
GCCCGCGCCCGAACGCCACGCCAAGCTCAGGATCATTTCGCGGAGTCACCTAGTGCAG	4820 fluorescence intensity (a.u.)
TTCTCGCAACGCCGTTGCTGATGATGATTCAGCCGAACGGCGGAGTCACCTAGTGCAG	3480 fluorescence intensity (a.u.)
CCATGTTCAGGATCACGTCAATGCGCCGCCGTTGTCGCTGCGGAGTCACCTAGTGCAG	3600 fluorescence intensity (a.u.)
TGTTTGTCGTGACTTAGCTTAGTTGTTGCTGTTGTTGAGCCGGAGTCACCTAGTGCAG	3400 fluorescence intensity (a.u.)

In a second layout: entries from further up
AGGACTGCAGCGGTTGAAGGGGTGGTGACTGACTGGTCGGCGGAGTCACCTAGTGCAG
  binding signal = 3510 fluorescence intensity (a.u.)
CTAACACGTCACACAATTACGTCATGTTCGCGTCGCCGAACGGAGTCACCTAGTGCAG
  binding signal = 19600 fluorescence intensity (a.u.)
GGATGACAACGCACACACTGTTAGGCCTCCTTTGGAACACCGGAGTCACCTAGTGCAG
  binding signal = 5950 fluorescence intensity (a.u.)

(listing goes on)

Sequence	binding signal
TGGTAAGGTTGAAAATGGCATCAAAGTGAACAGGCCCTCACGGAGTCACCTAGTGCAG	22200 fluorescence intensity (a.u.)
GCTCACCATCGTCACACTGGCTCACTGCTGCATTCCGCATCGGAGTCACCTAGTGCAG	3400 fluorescence intensity (a.u.)
TGCTCGCCACGCGCGTCCACGTTCCACGTTTGAAGGCATTCGGAGTCACCTAGTGCAG	3580 fluorescence intensity (a.u.)
CGAACTTCACGCCGCCGTGACGCCGTGTCGACTCATCCGACGGAGTCACCTAGTGCAG	5860 fluorescence intensity (a.u.)
TGATCACTAGCACAGTGGTTGTTGCGTCATTATGCGATAACGGAGTCACCTAGTGCAG	8420 fluorescence intensity (a.u.)
AAAATGGAGAGAAGAGGAAGGGACAGATGACGTGGCATCCCGGAGTCACCTAGTGCAG	48900 fluorescence intensity (a.u.)
ATCGCGCTGCCACCTCCGCATCGCGCTGTCACCATCGTCGCGGAGTCACCTAGTGCAG	7200 fluorescence intensity (a.u.)
GATCCGTGCATCTACACGTGGCGTAATCTCGTTAGCCCCACGGAGTCACCTAGTGCAG	17800 fluorescence intensity (a.u.)
TATTGCATGATAGTTCTGGAAATATGAATGATTAAAATTCCGGAGTCACCTAGTGCAG	19000 fluorescence intensity (a.u.)
AGGTGGAAGTTTGCAATTGCAACACACCACGCCACACAAGCGGAGTCACCTAGTGCAG	4440 fluorescence intensity (a.u.)
GGCCCGCAATCCGTCCGCGCTTTCCGGCCGCGTCCCCTTCCGGAGTCACCTAGTGCAG	3300 fluorescence intensity (a.u.)
TAAATGTTCGTGTGGCATGCCACATCAGCACCACGTAGGACGGAGTCACCTAGTGCAG	21400 fluorescence intensity (a.u.)
GCAAAGCTGACCTTGCATTGCATTGCCCACAGCTCAACCACGGAGTCACCTAGTGCAG	3680 fluorescence intensity (a.u.)
AGAATCAACATATAGCCATGTGACGAATGCCATGACGTCACGGAGTCACCTAGTGCAG	9780 fluorescence intensity (a.u.)
AAGATATCATCGATGACATAGCAACTCATGCATCATATCACGGAGTCACCTAGTGCAG	4590 fluorescence intensity (a.u.)
AGAATTCCGTGATACGCGCATACGCGTCGACAAGAGAAATCGGAGTCACCTAGTGCAG	3280 fluorescence intensity (a.u.)
CCCCTAAAACATGATGAGTGACTTGTTTGAGCATTTTATACGGAGTCACCTAGTGCAG	4600 fluorescence intensity (a.u.)
CCGGATCTTCAGCAGAGTCGTGTCACCTGTTTTGATCGTTCGGAGTCACCTAGTGCAG	3890 fluorescence intensity (a.u.)
GTTTTGACCCCGGTTTTGTCCCACGTGGCGGCTGAGTCAGCGGAGTCACCTAGTGCAG	30400 fluorescence intensity (a.u.)
GCTGGCAGCCGCTCCCTCTCGCTATGCTAAGTCGACATGCCGGAGTCACCTAGTGCAG	3520 fluorescence intensity (a.u.)
TTCCTCTGACTTGTAGCTCTACAACTACGCGTCGTTTTCTCGGAGTCACCTAGTGCAG	4860 fluorescence intensity (a.u.)
